Reference: paper PMC7915682 (Biomedicines, 2021)

Experiment: general procedure: Fmoc solid-phase peptide synthesis; 2-chlorotrityl chloride (2-CTC) resin; Wang resin for microwave-assisted synthesis; HATU/DIPEA
Conditions: whole synthesis

## HELM PEPTIDE1{S.[meT].H.F.P.[meI].C.[meI].F}$$$$V2.0 (N-terminus assumed; SMILES CC[C@H](C)[C@@H](C(=O)N[C@@H](Cc1ccccc1)C(=O)O)N(C)C(=O)[C@H](CS)NC(=O)[C@H]([C@@H](C)CC)N(C)C(=O)[C@@H]1CCCN1C(=O)[C@H](Cc1ccccc1)NC(=O)[C@H](Cc1c[nH]cn1)NC(=O)[C@H]([C@@H](C)O)N(C)C(=O)[C@@H](N)CO)
  difficulty met: considering the challenges faced in the synthesis of the tri-N-methylated derivative
